Measured values from PubChem BioAssay AID330 (DTP/NCI, 2004).
The list shows only some results of the screen, not a fair sample: it is rich in T/C values a quarter to a half above the control, in often repeated tests (any T/C) and in doses without a T/C. Other doses and runs of a compound stand elsewhere. T/C is the treated group as % of the vehicle group. Some doses have a count of surviving animals in place of a T/C: the source files T/C as zero there, which appears to mark a toxic dose or a test without result, not a measured value. Some doses without a T/C left all or most animals alive at the check, yet need not have been tolerated: survival well below the control is almost never listed, so the zero probably covers shortened survival too. Counts of survivors are from the toxicity check (mostly the fifth day) where no day follows; animals may have died later. Schedule codes are those of the source, taken here to give the interval after Q, in days (D) or hours (H), and the number of doses after X. Some molecules as drawn cover several salts, stereoisomers or complexes of the source; a dose is that of the sample tested. Some entries hold several experiments; their values stand side by side, smallest first. Brackets with × stand for listed records that agree. For survival time, this PubChem deposit counts one and a half times the control or more as active, and values a quarter to a half above the control carry no call in these data; other NCI protocols may use other cut-offs. Some T/C values carry the count of animals alive at the toxicity check (mostly the fifth day); without a count, all were alive then.

System: P388 leukemia ip, CD2F1 mice, survival T/C
Test: NCI In Vivo Anticancer Drug Screen. Data for tumor model P388 Leukemia (intraperitoneal) in CD2F1 (CDF1) mice
Conditions: T/C endpoint: median survival time, higher T/C = longer survival
[1] = dose: 100.0 mg/kg/injection, schedule: Q01DX005 (ip), vehicle: saline with Tween-80
[2] = dose: 200.0 mg/kg/injection, schedule: Q01DX005 (ip), vehicle: saline with Tween-80
[3] = dose: 50.0 mg/kg/injection, schedule: Q01DX005 (ip), vehicle: saline with Tween-80
[4] = dose: 120.0 mg/kg/injection, schedule: Q01DX005 (ip), vehicle: saline with Tween-80
[5] = dose: 240.0 mg/kg/injection, schedule: Q01DX005 (ip), vehicle: saline with Tween-80
[6] = dose: 400.0 mg/kg/injection, schedule: Q04DX003 (ip), vehicle: saline with Tween-80
[7] = dose: 0.5 mg/kg/injection, schedule: Q01DX009 (ip), vehicle: water
[8] = dose: 50.0 mg/kg/injection, schedule: Q01DX009 (ip), vehicle: saline
[9] = dose: 200.0 mg/kg/injection, schedule: Q01DX009 (ip), vehicle: Klucel (hydroxypropylcellulose) (HPC)

Nc1cc2c(cc1Br)-c1ccccc1C2=O was tested, and the survivor count (dose: 400.0 mg/kg/injection, schedule: Q01DX009 (ip), vehicle: saline with Tween-80) was 5 of 6.

CCCCCCCCN(CCCCCCCC)C(=N)c1ccnc2ccccc12 was tested, and the survivor count [1] was 0 of 5 and the survivor count [2] was 0 of 5.

In the case of Cc1cc(O)ccc1Nc1ccc(N(CCCl)CCCl)cc1, the T/C (dose: 100.0 mg/kg/injection, schedule: Q04DX003 (ip), vehicle: Klucel (hydroxypropylcellulose) (HPC)) is reported as 148 % of control.

For Cc1cc(=NC(C)(C)C)nc2c3ccccc3c(Cl)cn12, the survivor count (dose: 12.5 mg/kg/injection, schedule: Q01DX005 (ip), vehicle: saline with Tween-80) was 0 of 6, the survivor count (dose: 25.0 mg/kg/injection, schedule: Q01DX005 (ip), vehicle: saline with Tween-80) was 0 of 6 and the survivor count [3] was 0 of 6. For the same molecule, the survivor count [1] was 0 of 6 and the survivor count [2] was 0 of 6.

For CC(=O)/C=C\c1ccc(Cl)cc1, the survivor count (dose: 200.0 mg/kg/injection, schedule: Q01DX009 (ip), vehicle: saline with Tween-80) was 6 of 6.

In the case of O=C(NCCCN1CC1)C(=O)NCCCN1CC1, the survivor count (dose: 6.25 mg/kg/injection, schedule: Q01DX009 (ip), vehicle: saline) is reported as 5 of 6.

For O=C(c1cc(Nc2ccnc3cc(Cl)ccc23)ccc1O)N1CCCCC1, the T/C [3] was 125 % of control.

For O=C(CNC(=O)Nc1ccc(Cl)c(Cl)c1)N/N=C/c1ccccc1F, the survivor count (dose: 30.0 mg/kg/injection, schedule: Q01DX005 (ip), vehicle: saline with Tween-80) was 6 of 6, the survivor count (dose: 60.0 mg/kg/injection, schedule: Q01DX005 (ip), vehicle: saline with Tween-80) was 6 of 6 and the survivor count [4] was 6 of 6. For the same molecule, the survivor count [5] was 6 of 6.

In the case of CC(C)(C)SC(=O)C1CC1, the survivor count [6] is reported as 0 of 6.

For Nc1cccc[n+]1CCCCCC[n+]1ccccc1N, the survivor count (dose: 12.5 mg/kg/injection, schedule: Q01DX009 (ip), vehicle: saline) was 2 of 6.

In the case of CCOC(=O)N(C)N=NCCCl, the survivor count [4] is reported as 3 of 6 and the survivor count [5] is reported as 0 of 6.

CCOC(=O)N1CCN(C(=S)NNC(C)c2cccc[n+]2[O-])CC1 (centres undefined) was tested, and the survivor count [2] was 3 of 6.

In the case of C/C(=N\NC(=S)N1CCC(c2ccccc2)CC1)c1ccccn1, the survivor count (dose: 400.0 mg/kg/injection, schedule: Q04DX003 (ip), vehicle: saline) is reported as 0 of 6.

For CCC1=C[C@H]2CN(CCc3c([nH]c4ccccc34)[C@@](C(=O)OC)(c3cc4c(cc3OC)N(C)[C@H]3[C@@](O)(C(=O)NC)[C@H](OC(C)=O)[C@]5(CC)C=CCN6CC[C@]43[C@@H]65)C2)C1, the T/C (dose: 0.03 mg/kg/injection, schedule: Q01DX009 (ip), vehicle: water) was 131 % of control, the T/C (dose: 0.06 mg/kg/injection, schedule: Q01DX009 (ip), vehicle: water) was 133 and 142 % of control and the T/C (dose: 0.25 mg/kg/injection, schedule: Q01DX009 (ip), vehicle: water) was 127 % of control (2×). The T/C [7] was 144 % of control, the survivor count [7] was 1 of 6 and 6 of 6 and the T/C (dose: 1.0 mg/kg/injection, schedule: Q01DX001 (ip), vehicle: water) was 128 % of control. The survivor count (dose: 1.0 mg/kg/injection, schedule: Q01DX009 (ip), vehicle: water) was 1 of 6, 2 of 6, 5 of 6, the survivor count (dose: 2.0 mg/kg/injection, schedule: Q01DX009 (ip), vehicle: water) was 0 of 6 (2×) and the survivor count (dose: 2.0 mg/kg/injection, schedule: Q04DX003 (ip), vehicle: water) was 6 of 6.

For C(=NCCN=Cc1ccccc1)c1ccccc1, the survivor count (dose: 100.0 mg/kg/injection, schedule: Q01DX009 (ip), vehicle: saline with Tween-80) was 5 of 6.

In the case of CN1CCC23c4c5ccc(O)c4OC2C(=NN=C2CCC4(O)C6Cc7ccc(O)c8c7C4(CCN6C)C2O8)CCC3(O)C1C5 (centres undefined), the survivor count [3] is reported as 0 of 6 and 3 of 6, the survivor count [1] is reported as 0 of 6 and the survivor count [2] is reported as 0 of 6.

With CCOC(=O)c1sc(SSc2sc(C(=O)OCC)c(C)c2[N+](=O)[O-])c([N+](=O)[O-])c1C the survivor count (dose: 200.0 mg/kg/injection, schedule: Q04DX003 (ip), vehicle: saline with Tween-80) was 5 of 6 and the survivor count [6] was 6 of 6.

For NC(=O)CN1CCN(c2ccnc3cc(Cl)ccc23)CC1, the survivor count (dose: 200.0 mg/kg/injection, schedule: Q04DX002 (ip), vehicle: saline with Tween-80) was 6 of 6 and the survivor count (dose: 400.0 mg/kg/injection, schedule: Q04DX002 (ip), vehicle: saline with Tween-80) was 0 of 6.

For N#C/C(=C\c1ccc(Cl)cc1)c1ccccc1, the survivor count [8] was 6 of 6.

Nc1ncnc2c1ncn2C1OC(COC2C(O)C(OC3OC(CO)C(O)C(O)C3N)C(O)C(OS(=O)(=O)O)C2OC(=O)[C@@H](N)CO)C(O)C1O (some centres undefined) was tested, and the survivor count (dose: 2.5 mg/kg/injection, schedule: Q01DX005 (ip), vehicle: Klucel (hydroxypropylcellulose) (HPC)) was 2 of 6, the survivor count (dose: 5.0 mg/kg/injection, schedule: Q01DX005 (ip), vehicle: Klucel (hydroxypropylcellulose) (HPC)) was 0 of 6 and the survivor count (dose: 10.0 mg/kg/injection, schedule: Q01DX005 (ip), vehicle: Klucel (hydroxypropylcellulose) (HPC)) was 0 of 6.

With Nc1nc(=S)c2ncn(C3CC(O)C(CO)O3)c2[nH]1 (centres undefined) the T/C (dose: 1.25 mg/kg/injection, schedule: Q01DX009 (ip), vehicle: Klucel (hydroxypropylcellulose) (HPC)) was 127 % of control, the T/C (dose: 2.5 mg/kg/injection, schedule: Q01DX009 (ip), vehicle: Klucel (hydroxypropylcellulose) (HPC)) was 136 % of control and the T/C (dose: 5.0 mg/kg/injection, schedule: Q01DX009 (ip), vehicle: Klucel (hydroxypropylcellulose) (HPC)) was 136 % of control. The T/C (dose: 6.25 mg/kg/injection, schedule: Q01DX009 (ip), vehicle: saline sonified) was 136 % of control, the T/C (dose: 12.5 mg/kg/injection, schedule: Q01DX009 (ip), vehicle: saline sonified) was 145 % of control and the T/C (dose: 12.5 mg/kg/injection, schedule: Q01DX009 (ip), vehicle: saline with Tween-80) was 137 % of control. For the same molecule, the T/C (dose: 25.0 mg/kg/injection, schedule: Q01DX009 (ip), vehicle: Klucel (hydroxypropylcellulose) (HPC)) was 140 % of control, the T/C (dose: 25.0 mg/kg/injection, schedule: Q01DX009 (ip), vehicle: saline with Tween-80) was 137 % of control and the T/C (dose: 50.0 mg/kg/injection, schedule: Q01DX005 (ip), vehicle: saline) was 127 % of control. The T/C [8] was 133 % of control, the T/C (dose: 100.0 mg/kg/injection, schedule: Q01DX005 (ip), vehicle: saline) was 125 and 143 % of control and the survivor count [9] was 5 of 6.

For Cc1cc(Cl)n2nc(-c3ccc(Cl)cc3)nc2n1, the survivor count (dose: 100.0 mg/kg/injection, schedule: Q01DX009 (ip), vehicle: Klucel (hydroxypropylcellulose) (HPC)) was 5 of 6 and the survivor count [9] was 3 of 6.

In the case of Cc1nc2ccccc2c(=O)n1/N=C1\C(=O)N(C)c2ccccc21, the survivor count (dose: 200.0 mg/kg/injection, schedule: Q01DX005 (ip), vehicle: Klucel (hydroxypropylcellulose) (HPC)) is reported as 2 of 6.

In the case of CN=C(N)N/N=C/c1c2ccccc2c(C)c2ccccc12, the survivor count (dose: 100.0 mg/kg/injection, schedule: Q04DX002 (ip), vehicle: saline) is reported as 3 of 6.

In the case of COc1cccc2c1C(=O)c1c(O)c3c(c(O)c1C2=O)C[C@@](O)(C(=O)CO)C[C@@H]3OC1CC(N)C(OC)C(C)O1 (some centres undefined), the T/C (dose: 0.78 mg/kg/injection, schedule: Q04DX003 (ip), vehicle: water) is reported as 136 % of control, the T/C (dose: 1.08 mg/kg/injection, schedule: Q04DX003 (ip), vehicle: saline) is reported as 127 % of control and the T/C (dose: 1.56 mg/kg/injection, schedule: Q04DX003 (ip), vehicle: water) is reported as 130 % of control [5 of 6 alive]. For the same molecule, the T/C (dose: 1.8 mg/kg/injection, schedule: Q01DX009 (ip), vehicle: saline) was 131 % of control, the T/C (dose: 1.8 mg/kg/injection, schedule: Q04DX003 (ip), vehicle: saline) was 130 % of control and the survivor count (dose: 3.0 mg/kg/injection, schedule: Q01DX009 (ip), vehicle: saline) was 8 of 8. The T/C (dose: 3.0 mg/kg/injection, schedule: Q04DX003 (ip), vehicle: saline) was 139 % of control and the T/C (dose: 6.25 mg/kg/injection, schedule: Q04DX003 (ip), vehicle: water) was 136 % of control.

CSCC(CO)NC(=O)/C=C/c1c(C)[nH]c(=O)[nH]c1=O (centres undefined) was tested, and the survivor count (dose: 200.0 mg/kg/injection, schedule: Q01DX009 (ip), vehicle: other) was 6 of 6 and the survivor count (dose: 400.0 mg/kg/injection, schedule: Q01DX009 (ip), vehicle: other) was 6 of 6.
